Experimental findings from publication PMC9035678 are described below.

Chains of the proteins cited; added tags and fusions are not shown.
UniProt Q39255: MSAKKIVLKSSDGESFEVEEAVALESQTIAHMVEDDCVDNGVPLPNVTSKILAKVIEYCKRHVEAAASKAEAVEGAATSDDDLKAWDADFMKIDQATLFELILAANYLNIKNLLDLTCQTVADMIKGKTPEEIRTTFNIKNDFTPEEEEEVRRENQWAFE
UniProt Q94AH6: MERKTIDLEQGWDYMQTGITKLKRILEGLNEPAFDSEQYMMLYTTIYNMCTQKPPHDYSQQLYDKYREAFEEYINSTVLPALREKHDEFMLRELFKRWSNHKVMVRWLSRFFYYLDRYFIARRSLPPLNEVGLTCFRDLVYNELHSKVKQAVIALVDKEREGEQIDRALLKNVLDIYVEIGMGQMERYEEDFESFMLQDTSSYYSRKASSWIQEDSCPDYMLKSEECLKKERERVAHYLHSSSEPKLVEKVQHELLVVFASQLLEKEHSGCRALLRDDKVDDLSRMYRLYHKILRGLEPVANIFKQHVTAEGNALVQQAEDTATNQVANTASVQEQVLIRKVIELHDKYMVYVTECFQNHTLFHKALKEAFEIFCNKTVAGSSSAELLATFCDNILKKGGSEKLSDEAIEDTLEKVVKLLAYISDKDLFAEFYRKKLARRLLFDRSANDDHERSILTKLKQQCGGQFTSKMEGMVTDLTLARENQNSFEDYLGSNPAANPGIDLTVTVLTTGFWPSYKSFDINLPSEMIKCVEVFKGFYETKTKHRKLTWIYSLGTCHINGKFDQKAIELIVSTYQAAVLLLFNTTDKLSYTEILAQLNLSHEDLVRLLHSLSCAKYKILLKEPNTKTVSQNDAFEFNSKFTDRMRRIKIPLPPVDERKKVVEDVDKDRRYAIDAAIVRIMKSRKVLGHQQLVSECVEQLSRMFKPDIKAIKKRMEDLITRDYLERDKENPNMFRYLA

The chains are these.
T1: 3HA-FBW2 (3x human influenza hemagglutinin (HA)-epitope at the N terminus of FBW2) (Arabidopsis thaliana) (UniProt Q9ZPE4)
T1 sequence: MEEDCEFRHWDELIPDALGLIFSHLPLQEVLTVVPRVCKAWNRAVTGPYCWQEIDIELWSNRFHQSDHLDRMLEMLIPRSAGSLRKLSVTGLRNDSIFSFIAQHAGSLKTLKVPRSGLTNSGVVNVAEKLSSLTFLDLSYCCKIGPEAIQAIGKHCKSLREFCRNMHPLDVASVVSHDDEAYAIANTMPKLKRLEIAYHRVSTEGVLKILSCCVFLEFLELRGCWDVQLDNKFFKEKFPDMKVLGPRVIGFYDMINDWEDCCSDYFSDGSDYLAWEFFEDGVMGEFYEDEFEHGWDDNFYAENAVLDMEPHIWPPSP

B1: ASK21 (protein, UniProt Q8LF97 1-351)
chain: MSEGEMAIIKPEMMKSYIWLETADGSIQQVEQEVAMFCPMICQEVIQKGVGSSKNYAISLPQRVNPAMLSLIFDYCRFHQVPGRSNKERKVYDEKFIRMDTKRLCELTSAADSLQLKPLVDLTSRALARIIEGKTPEEIREIFHLPDDLTEEEKLEPLKNTMDDPRIRLLNRLYAKKRKELKEREKLKSVEVEEHVDERSVDDLLSFINGRDPKVVKTSKSKKKNKKRKEQKNGSSNGTCEALEKDLHNLDSKSQSAEIVDNTASCLGDVSNLPSMEDDIFTPKTEFEDGYIDDEIDPALKELLDREVEDFARRLNSSWVLSIGQERQPVNFSINGNGTSRRLTGPAAGHK
B2: ARGONAUTE1 (AGO1) (protein, UniProt O04379 1-1048)
chain: MVRKRRTDAPSEGGEGSGSREAGPVSGGGRGSQRGGFQQGGGQHQGGRGYTPQPQQGGRGGRGYGQPPQQQQQYGGPQEYQGRGRGGPPHQGGRGGYGGGRGGGPSSGPPQRQSVPELHQATSPTYQAVSSQPTLSEVSPTQVPEPTVLAQQFEQLSVEQGAPSQAIQPIPSSSKAFKFPMRPGKGQSGKRCIVKANHFFAELPDKDLHHYDVTITPEVTSRGVNRAVMKQLVDNYRDSHLGSRLPAYDGRKSLYTAGPLPFNSKEFRINLLDEEVGAGGQRREREFKVVIKLVARADLHHLGMFLEGKQSDAPQEALQVLDIVLRELPTSRYIPVGRSFYSPDIGKKQSLGDGLESWRGFYQSIRPTQMGLSLNIDMSSTAFIEANPVIQFVCDLLNRDISSRPLSDADRVKIKKALRGVKVEVTHRGNMRRKYRISGLTAVATRELTFPVDERNTQKSVVEYFHETYGFRIQHTQLPCLQVGNSNRPNYLPMEVCKIVEGQRYSKRLNERQITALLKVTCQRPIDREKDILQTVQLNDYAKDNYAQEFGIKISTSLASVEARILPPPWLKYHESGREGTCLPQVGQWNMMNKKMINGGTVNNWICINFSRQVQDNLARTFCQELAQMCYVSGMAFNPEPVLPPVSARPEQVEKVLKTRYHDATSKLSQGKEIDLLIVILPDNNGSLYGDLKRICETELGIVSQCCLTKHVFKMSKQYMANVALKINVKVGGRNTVLVDALSRRIPLVSDRPTIIFGADVTHPHPGEDSSPSIAAVVASQDWPEITKYAGLVCAQAHRQELIQDLFKEWKDPQKGVVTGGMIKELLIAFRRSTGHKPLRIIFYRDGVSEGQFYQVLLYELDAIRKACASLEAGYQPPVTFVVVQKRHHTRLFAQNHNDRHSVDRSGNILPGTVVDSKICHPTEFDFYLCSHAGIQGTSRPAHYHVLWDENNFTADGLQSLTNNLCYTYARCTRSVSIVPPAYYAHLAAFRARFYMEPETSDSGSMASGSMARGGGMAGRSTRGPNVNAAVRPLPALKENVKRVMFYC
B3: AGO10 (protein, UniProt Q9XGW1 1-988)
chain: MPIRQMKDSSETHLVIKTQPLKHHNPKTVQNGKIPPPSPSPVTVTTPATVTQSQASSPSPPSKNRSRRRNRGGRKSDQGDVCMRPSSRPRKPPPPSQTTSSAVSVATAGEIVAVNHQMQMGVRKNSNFAPRPGFGTLGTKCIVKANHFLADLPTKDLNQYDVTITPEVSSKSVNRAIIAELVRLYKESDLGRRLPAYDGRKSLYTAGELPFTWKEFSVKIVDEDDGIINGPKRERSYKVAIKFVARANMHHLGEFLAGKRADCPQEAVQILDIVLRELSVKRFCPVGRSFFSPDIKTPQRLGEGLESWCGFYQSIRPTQMGLSLNIDMASAAFIEPLPVIEFVAQLLGKDVLSKPLSDSDRVKIKKGLRGVKVEVTHRANVRRKYRVAGLTTQPTRELMFPVDENCTMKSVIEYFQEMYGFTIQHTHLPCLQVGNQKKASYLPMEACKIVEGQRYTKRLNEKQITALLKVTCQRPRDRENDILRTVQHNAYDQDPYAKEFGMNISEKLASVEARILPAPWLKYHENGKEKDCLPQVGQWNMMNKKMINGMTVSRWACVNFSRSVQENVARGFCNELGQMCEVSGMEFNPEPVIPIYSARPDQVEKALKHVYHTSMNKTKGKELELLLAILPDNNGSLYGDLKRICETELGLISQCCLTKHVFKISKQYLANVSLKINVKMGGRNTVLVDAISCRIPLVSDIPTIIFGADVTHPENGEESSPSIAAVVASQDWPEVTKYAGLVCAQAHRQELIQDLYKTWQDPVRGTVSGGMIRDLLISFRKATGQKPLRIIFYRDGVSEGQFYQVLLYELDAIRKACASLEPNYQPPVTFIVVQKRHHTRLFANNHRDKNSTDRSGNILPGTVVDTKICHPTEFDFYLCSHAGIQGTSRPAHYHVLWDENNFTADGIQSLTNNLCYTYARCTRSVSIVPPAYYAHLAAFRARFYLEPEIMQDNGSPGKKNTKTTTVGDVGVKPLPALKENVKRVMFYC
B4: ASK20 (protein, UniProt A8MQG7 1-352)
chain: MSEGDLAVMKPETMKSYIWLQTADGSIQQVEQEVAMFCPMICQEVIQKGVGSSKNHAISLPQRVNPAMFSLILDYCRFHQLPGRSNKERKTYDERFIRMDTKRLCELTSAADSLQLKPLVDLTSRALARIIEGKNPEEIREIFHLPDDLTEEEKLEPLKNSMDDPRIRLLNRLYAKKRKELKERERLKNVEVEEHVDERSVDDLLSFINGRDHKAVKMSKGKKKKKKKKDQKIVSSNNIHDKESHDLRSKQQCVEEIGSSMREVPNLLSAEDDISTPNAGSEDEDIDDEIDPAMRELLDREVEDFAQRLNSNWVRSLGKERRPVHFSINGNGTTRRHTGMVSIWRPCMFTLF
B5: DNAJ homolog J3 (protein, UniProt Q94AW8 1-420)
chain: MFGRGPSKKSDNTKFYEILGVPKSASPEDLKKAYKKAAIKNHPDKGGDPEKFKELAQAYEVLSDPEKREIYDQYGEDALKEGMGGGGGGHDPFDIFSSFFGGGPFGGNTSRQRRQRRGEDVVHPLKVSLEDVYLGTMKKLSLSRNALCSKCNGKGSKSGASLKCGGCQGSGMKVSIRQLGPGMIQQMQHACNECKGTGETINDRDRCPQCKGDKVIPEKKVLEVNVEKGMQHSQKITFEGQADEAPDTVTGDIVFVLQQKEHPKFKRKGEDLFVEHTLSLTEALCGFQFVLTHLDGRSLLIKSNPGEVVKPDSYKAISDEGMPIYQRPFMKGKLYIHFTVEFPDSLSPDQTKALEAVLPKPSTAQLSDMEIDECEETTLHDVNIEDEMRRKAQAQREAYDDDDEDDDHPGGAQRVQCAQQ
B6: AGO5 (protein, UniProt Q9SJK3 1-997)
chain: MSNRGGGGHGGASRGRGGGRRSDQRQDQSSGQVAWPGLQQSYGGRGGSVSAGRGRGNVGRGENTGDLTATQVPVASAVSGGRGRGNIGDPTFSVASSSKTVSVASSSKEESKNTEVSETMSNLQITSTETKPEMTSLPPASSKAVTFPVRPGRGTLGKKVMVRANHFLVQVADRDLYHYDVSINPEVISKTVNRNVMKLLVKNYKDSHLGGKSPAYDGRKSLYTAGPLPFDSKEFVVNLAEKRADGSSGKDRPFKVAVKNVTSTDLYQLQQFLDRKQREAPYDTIQVLDVVLRDKPSNDYVSVGRSFFHTSLGKDARDGRGELGDGIEYWRGYFQSLRLTQMGLSLNIDVSARSFYEPIVVTDFISKFLNIRDLNRPLRDSDRLKVKKVLRTLKVKLLHWNGTKSAKISGISSLPIRELRFTLEDKSEKTVVQYFAEKYNYRVKYQALPAIQTGSDTRPVYLPMELCQIDEGQRYTKRLNEKQVTALLKATCQRPPDRENSIKNLVVKNNYNDDLSKEFGMSVTTQLASIEARVLPPPMLKYHDSGKEKMVNPRLGQWNMIDKKMVNGAKVTSWTCVSFSTRIDRGLPQEFCKQLIGMCVSKGMEFKPQPAIPFISCPPEHIEEALLDIHKRAPGLQLLIVILPDVTGSYGKIKRICETELGIVSQCCQPRQVNKLNKQYMENVALKINVKTGGRNTVLNDAIRRNIPLITDRPTIIMGADVTHPQPGEDSSPSIAAVVASMDWPEINKYRGLVSAQAHREEIIQDLYKLVQDPQRGLVHSGLIREHFIAFRRATGQIPQRIIFYRDGVSEGQFSQVLLHEMTAIRKACNSLQENYVPRVTFVIVQKRHHTRLFPEQHGNRDMTDKSGNIQPGTVVDTKICHPNEFDFYLNSHAGIQGTSRPAHYHVLLDENGFTADQLQMLTNNLCYTYARCTKSVSIVPPAYYAHLAAFRARYYMESEMSDGGSSRSRSSTTGVGQVISQLPAIKDNVKEVMFYC

These are yes or no findings as the source states them, for the method shown. Binding seen in cells or lysates may run through a third protein. A yes stands for co-enrichment or nearness to the bait. Other partners may have been found. Tags and fused reporters may be left off the sequences shown.

The assay addresses T1, 3HA-FBW2 (3x human influenza hemagglutinin (HA)-epitope at the N terminus of FBW2) (Arabidopsis thaliana). As to the kind of experiment: affinity purification with mass spectrometry; HA-tagged FBW2 purified on anti-HA magnetic microbeads from formaldehyde (0.375%) cross-linked extracts of FBW2OE and FBW2OE/ago1-27 seedlings treated with 20 μM MLN4924 for 20 h; Col-0 as control; nanoLC-MS/MS, spectral counts.
For the molecule “ASK1 (Skp1-like protein) (from UniProt Q39255 1-160)”, the binding entry was “binds”.

Consider “cullin 1 (CUL1) (from UniProt Q94AH6 1-738)”, for which the binding result was “binds”.

Turning to RUB1, the binding entry is “binds”.

For the molecule DNAJ homolog J2, the binding result was “binds”.

As for Hsp90, the binding entry is given as “binds”.

Hsp70: the binding entry was “binds”.

For CUL-like protein 1, the binding entry is listed as “binds”.

Regarding Hsp80, the binding result is on record as “binds”.

Regarding B1, the binding result was “binds”.

Take B2: the binding entry was “binds”.

B3: the binding result is “binds”.

Consider B4, for which the binding result is “binds”.

On to B5, for which the binding entry is recorded as “binds”.

Consider B6, for which the binding result is on record as “binds”.
